Results taken from ChEMBL document CHEMBL1155538 (Bioorg Med Chem Lett, 2010).
Only a part of the results on these compounds is given; other tests are left out. A number of entries come with more than one value. The other results are left out here. There may be further records. The values listed for one entry do not match, cause unknown; they may come from other doses, times, organisms or constructs than stated.

Test system: Liver microsomes
Assay: Half life in human liver microsomes
Assay type: ADME, Microsome

FC(F)Oc1ccccc1CC(c1ccccc1)N1CCNCC1 (stereo unspecified)
t1/2: > 120 min, 72 min, 44 min
